Screen size: about 52,000 sequences; about 210 (0.4%) were called active.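 How the source made its calls: active means gene whose silencing raises cell survival under the drug, median off-target-corrected z-score across its silencing RNAs 2 or more; inactive means the rest.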 The list shows a part of the results.

The nature of the experiment: Resistance to Poly (ADP-Ribose) Polymerase inhibitor: Gene Identification via Genome-wide siRNA Screen. Conditions: mouse BRCA2 R2336H ES cells, olaparib, CellTiter-Glo viability; active compounds read high. The essentials: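 Genome-wide siRNA screen (3 siRNAs/gene, 20 nM) in mouse ES cells carrying hypomorphic BRCA2 R2336H; olaparib 500 nM added 48 h post-transfection, CellTiter-Glo viability 72 h later. Normalized to plate-median negative control; MAD z-scores, gene median, seed-adjusted.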
On the technique in general: ATP-based viability assays read luminescence as a measure of living cells.
Take GCCUUUCUAUGCCCAGCAUTT against BC018601: the z-score is inactive: -2.55. The same measure for CGGAUUCCUGCUCUUAAGUTT against Tdrd3: inactive: -0.188. With GGAAGAUAAUAUCCUUUGGTT against Olfr734, the z-score was inactive: 0.204.

With UCUCAUGGAGUCUGCUGCUTT against Serpina1d, the z-score is inactive: 0.366. CCGUCAGUGAAUUCUUGAATT against Birc5: the z-score is inactive: -1.83. For the sequence GGAUUUAGGCCUUAUCAUCTT against Atf3, the z-score was inactive: -0.509.

For the sequence GCAACGUGAAACAUAUUCUTT against Cpb1, the z-score was inactive: 0.593.

CCACGAAGAGCAAGAAAACTT against MGC118250: the z-score was inactive: -3.5e-05.

As for “GGAGAACACAAGAUUUAAATT against D930036B08Rik”, the z-score was inactive: 1.49. On to CCCUUUCGGGCAAUGGACUTT against Olfr986, for which the z-score is inactive: -1.16. The same measure for CCCUGUUCGUAAUCAUUAUTT against Olfr467: inactive: 1.56; for GCAAGCCACAACAGUUAAATT against Rpl9: inactive: -3.29. Take GGUGAUGUGUAGUGAAUGGTT against Il13: the z-score is inactive: -0.782. As for “GGCCUUUAUCCUGAGGCUATT against 2310061F22Rik”, the z-score is inactive: -0.593. As for CCGAAUUGGACUCCACCAATT against Gdf6, the figure is inactive: -1.61; as for GGAAUGGAAUACAAAGUCATT against C80587, inactive: 0.0646; as for CCGUCUGAUGAAAACACUATT against Ssfa2, inactive: -0.253.

Regarding GGACAUCGCAUAUCAGCUATT against Akp2, the z-score was inactive: -0.44.

As to CCACCCAUAUUAUAAUUGUTT against Olfr722, the z-score is inactive: 0.137.

As to GGAUGAUGGCUGUAUUUUGTT against Hoxb5, the z-score was inactive: 0.139. Take GCUAUUUCUCACAGAAUUATT against Dmd: the z-score is inactive: 0.758. Take GGAGUCGGUUAGAAGCUCUTT against Trim15: the z-score is inactive: -0.354. The same measure for CCUCCGUUUGAUGACUCAATT against Tcte3: inactive: 0.671; for GGUUUUAAUUUCAACUGUCTT against Cln2: inactive: 0.646; for GGGCUAAUUGUGAACAUUUTT against Slc7a1: inactive: -3.02. As to “GGCCAUCUCUUCUACUGUATT against 4732486J07Rik”, the z-score was inactive: -1.36. As to CGCAAUUUGAAUAUGCCUGTT against Ttc11, the z-score is inactive: 0.695. In the case of GGAGACUGUAUGUGGCAAGTT against Camp, the z-score was inactive: -0.82. GGAAGAAUGGAGCUGUACATT against Pep4: the z-score was inactive: -0.122.

For GCCUUGUUUAUAUGCCCAATT against Olfr592, the z-score was inactive: -0.955. As for GCAGUUUCUAAUGAAGGUUTT against Ppp2r5a, the figure is inactive: -0.681; as for GGUAAACAGAAUCUGGUGATT against Dhfr, inactive: 1.86. In the case of GGAUCUUUCGUGUGGAAAATT against Atf7ip, the z-score was inactive: 1.14. As for “GCAGAUCAGUUGGUACAAGTT against 8430416H19Rik”, the figure is inactive: 1.06. The same measure for “GGUUCAAGUGGUAAGCAAUTT against 1700016D06Rik”: inactive: -0.303. As for GGCAAUGUCAGAGCUAAUCTT against BC067068, the z-score was inactive: -0.0128. As to GCAUGACAUAUAGUACAAUTT against LOC433365, the z-score was inactive: 0.603.

Consider CAGUAUGGCCCUGUCCUACTT against Hand2, for which the z-score was inactive: 1.91. With CCGUCAAACUACAGUUUGATT against BC054438, the z-score is inactive: -0.863.

GGUGAUUUGCUCAAUCCAATT against Phox2a: the z-score is inactive: 1.66.

For the sequence GGAUAAUGAUGUGAAAGGCTT against Mrps30, the z-score was inactive: 0.361. Take ACAUGACAAACAACACUAUTT against Olfr960: the z-score is inactive: -0.0859. As for GGUUGUGGAAAAUGUUAGGTT against Olfr1054, the figure is inactive: 1.06; as for GAUGGACAAACGGAAGUGCTT against Iapp, inactive: -0.245; as for “GGGAACCAUCAAUAGGCACTT against 9130022K13Rik”, inactive: -0.201. For the sequence “GCGCAAUACGUGGGUUUGUTT against A930021C24Rik”, the z-score is inactive: -1.88. As for GGACCUUGCAUUUGCUUACTT against Fez2, the figure is inactive: -0.463; as for GGCUCUUACUUCAUCACUATT against Casp4, inactive: -1.01. In the case of “GGUCAGUAUCAGAAUGAUCTT against D930025H04”, the z-score was inactive: 0.891.

For the sequence GGCCGAAACUUCGUUUAUATT against Crsp6, the z-score was inactive: -1.83.

With “CCAAAACGGAAUCCUAAUATT against 9430031J16Rik”, the z-score was inactive: -0.0181. The same measure for GCGGGCUUGGAAGAAUCAUTT against Gle1l: inactive: -1.74; for GGGAAAGUUAAUAUCAAGATT against Ephb4: inactive: 1.35. As for “GGGUUAAGCGCAAGUGUAATT against 2210008A03Rik”, the figure is inactive: -1.83; as for GCACCAGUUCUACUUCACCTT against Fpr-rs2, inactive: 1.72; as for GGUAAAAUCACUUCAGAUCTT against Phb, inactive: 0.69. The same measure for “GGAAAUGGUAAUUUUCAGUTT against C330005L02Rik”: inactive: 0.202. GGUCCUUGUCUCUCAUGUATT against Snap29: the z-score is inactive: -0.495.

In the case of “CGUAUGAAGGAAUUCCAUGTT against 1700011F03Rik”, the z-score was inactive: -0.186.

In the case of GGCUCCGAAUAGGAGAUCATT against Crk, the z-score is inactive: 0.196. Turning to “GGAUCCACAAGGAAUUUAUTT against 9530003J23Rik”, the z-score is inactive: 0.576.

Take “CCCAGGGUGUCAAUCUAAATT against 1110014P06Rik”: the z-score is inactive: -0.481. The same measure for GGAAAAUGACUUCAGCUGGTT against Sfmbt2: inactive: 0.293; for GGAAUUUACUUACAUCAUGTT against Rbp3: inactive: 0.584. As for GGAGUUAUACGCAUGCCAGTT against ORF18, the figure is inactive: 1.95. As for GGCUAAGCAAGGCUAUGUCTT against Rpl15, the figure is inactive: -2.97.

Values taken from PubChem BioAssay AID1347423 (Functional Genomics Laboratory (NCATS/FGL), 2020).
